According to PMC7819943, “Rice protein-binding microarrays: a tool to detect cis-acting elements near promoter regions in rice”:
This is one part of the list.

Amino acid sequences for entries named in this document (tags omitted).
UniProt Q0JBA9, entry or part of it: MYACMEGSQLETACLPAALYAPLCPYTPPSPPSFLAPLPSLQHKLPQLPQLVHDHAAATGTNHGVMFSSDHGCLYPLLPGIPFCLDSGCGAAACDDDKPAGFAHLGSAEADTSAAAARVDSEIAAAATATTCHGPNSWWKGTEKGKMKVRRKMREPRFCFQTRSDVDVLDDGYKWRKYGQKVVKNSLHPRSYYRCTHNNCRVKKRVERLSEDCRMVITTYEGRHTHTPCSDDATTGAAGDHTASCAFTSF

target: OsWRKY34 (Oryza sativa, UniProt Q0JBA9 1-250); assay: protein-binding microarray (RPBM); PBS, 2% BSA, 51.3 ng/ul salmon testes DNA, 50 uM zinc acetate, 200 nM TF, 25 C, 1 h; high values mean tight binding; details: protein: recombinant; tags: N-terminal polyhistidine and DsRed monomer fusion (pET32a); label: CyDye5-dUTP incorporated in the synthesized complementary strand; 3' TTTTT single-stranded linker to array surface; dsDNA, one strand shown
How it was run: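 Per-feature fluorescence intensity (arbitrary units), read on an Axon 4000B scanner, is the binding signal. Transcription factors carrying an N-terminal polyhistidine tag and DsRed fusion were expressed in E. coli BL21-CodonPlus and purified on Ni–NTA. A custom Agilent array, made double-stranded by primer extension with Cy5-dUTP and blocked with 2% BSA, was incubated with 200 nM protein in PBS, 2% BSA, salmon testes DNA and 50 µM zinc acetate at 25 °C for 1 h and then washed.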

First: GGGGACCACCTATACATTTGTCGACAAATTTTCTACTAAACGGAGTCACCTAGTGCAG
Second: CTCCACCCAAAACCCCTCGTCCTCTCTCCCGGCGACAATGCGGAGTCACCTAGTGCAG
The binding signal of the first is higher: 9820 fluorescence intensity (a.u.) for the first, 8080 fluorescence intensity (a.u.) for the second.

Compared with “GCTCCTTTGTTCCGGCTCTCTTGTCCCCTGCTGCCTTTTGCGGAGTCACCTAGTGCAG”, “CGCGCCCTCCGTCCCCAATCCTCCCGGCGAGCGGGACGAACGGAGTCACCTAGTGCAG” is lower in binding signal: 9300 fluorescence intensity (a.u.) for the first, 9080 fluorescence intensity (a.u.) for the second.

Going from “CGCCCCAATTTCCATGTACACGTAGCAGTTTCTCCCAAAACGGAGTCACCTAGTGCAG” to “CGGTTTGATAAACGACTGTAGCCAAAAGTACTTTTCAATCCGGAGTCACCTAGTGCAG”, the binding signal falls from 10000 fluorescence intensity (a.u.) to 8220 fluorescence intensity (a.u.).

First: GTGGTATCACCGACCTTTGTTTCCCATTATTCAATACAAACGGAGTCACCTAGTGCAG
Second: TACTTTGTGCAACCCATTACGCCACATGATGCTGCCTATACGGAGTCACCTAGTGCAG
The binding signal of the first is higher: 8920 fluorescence intensity (a.u.) for the first, 8830 fluorescence intensity (a.u.) for the second.

First: CATGTCTTCCATTCCACAAACATTTCCATTGCTGCATAACCGGAGTCACCTAGTGCAG
Second: TTGTTACTACATTTCCTGTACTATTTTACTGTCTGATTTACGGAGTCACCTAGTGCAG
The binding signal of the first is higher: 10300 fluorescence intensity (a.u.) for the first, 8460 fluorescence intensity (a.u.) for the second.

Going from “AAACCCTCGCAACGTATCATGCCACATAATGCCACATAGACGGAGTCACCTAGTGCAG” to “GAATCATGAGTTGGTTGGGTTGGCATTAAACTGTTTTGAGCGGAGTCACCTAGTGCAG”, the binding signal rises from 11100 fluorescence intensity (a.u.) to 12100 fluorescence intensity (a.u.).

Compared with “CCTCCCTCCCATCCGATCCCGTCCGTCCATCTCCGATCCGCGGAGTCACCTAGTGCAG”, “CACCCTTCTTCTCACCCATTGACGGATGCCCTGGAGGTTTCGGAGTCACCTAGTGCAG” is higher in binding signal: 8140 fluorescence intensity (a.u.) for the first, 10400 fluorescence intensity (a.u.) for the second.

Going from “TCTCCACATCTCCCTCTCGCTTCCACGCCTCCTCCGCTTTCGGAGTCACCTAGTGCAG” to “AGCTCACCTCTTCAAACGTTGCATGCACTTGGTGTACACACGGAGTCACCTAGTGCAG”, the binding signal falls from 9810 fluorescence intensity (a.u.) to 8030 fluorescence intensity (a.u.).

Compared with “CTCCTCATCCTCATGGATGCGCCGGCTTCACCGTGCGCGTCGGAGTCACCTAGTGCAG”, “GCCGAGCCGCGTCCCTTTTTCCCATCGCCCACGCAGCGAGCGGAGTCACCTAGTGCAG” is lower in binding signal: 8930 fluorescence intensity (a.u.) for the first, 8920 fluorescence intensity (a.u.) for the second.

Going from “CCGCGACTCATTTATTAGCTCGTTTCTGTGAACATTCTAGCGGAGTCACCTAGTGCAG” to “ATCCACCACCACCACCACCACCGCTTCACTCGGCTGCGGCCGGAGTCACCTAGTGCAG”, the binding signal rises from 9490 fluorescence intensity (a.u.) to 12600 fluorescence intensity (a.u.).

First: ATTCAGATCCTTAGTTGCTGGTTTTTCTTGTTCCTTTTCTCGGAGTCACCTAGTGCAG
Second: ACTGCAATTTTGTACAATCTAGTTTTTGTCTATTTTTTATCGGAGTCACCTAGTGCAG
The binding signal of the first is lower: 8360 fluorescence intensity (a.u.) for the first, 12100 fluorescence intensity (a.u.) for the second.

First: ATCTGCAAAATTCTTCATGCACCCTAGCTACTACCTTAGCCGGAGTCACCTAGTGCAG
Second: AATTATTTCGATTCGAGATGGATTCTACTGCCCCGTTGACCGGAGTCACCTAGTGCAG
The binding signal of the first is lower: 8580 fluorescence intensity (a.u.) for the first, 11600 fluorescence intensity (a.u.) for the second.

Compared with “AACCCTTGATTCCTGCATCAACGTTAGGAATCCACTTCTCCGGAGTCACCTAGTGCAG”, “AGATGCCAATACTACGCCCACTTCCCGCGCGCTCTATATACGGAGTCACCTAGTGCAG” is higher in binding signal: 8120 fluorescence intensity (a.u.) for the first, 8320 fluorescence intensity (a.u.) for the second.

Compared with “CCTAACATTTGTGCTTGTTTCTGTTCTGTCAAAAGGCTATCGGAGTCACCTAGTGCAG”, “TCTCTTTCTCGCCCGTTTCCCCACCACCACCACCACCACCCGGAGTCACCTAGTGCAG” is higher in binding signal: 8410 fluorescence intensity (a.u.) for the first, 8430 fluorescence intensity (a.u.) for the second.

First: AATTTCTGCTGCCATTTTCTATGTTCTTTAGTCTAAGTTTCGGAGTCACCTAGTGCAG
Second: TTGCTGAGCTCCGATGGAATTTTGCCGGTCAACGAGTTGTCGGAGTCACCTAGTGCAG
The binding signal of the first is higher: 14700 fluorescence intensity (a.u.) for the first, 8180 fluorescence intensity (a.u.) for the second.

Going from “GGAGTTTATCACACATCTCTCAACATTTTTATCTTATATCCGGAGTCACCTAGTGCAG” to “GAAGCGGGTGGCGGTGGAGGAGCTCCGCCGGCGCGTTGACCGGAGTCACCTAGTGCAG”, the binding signal rises from 8420 fluorescence intensity (a.u.) to 13600 fluorescence intensity (a.u.).

First: GGGCTTTGTTTAGTTCTCAAAATTTGTTTTCCAAAAACATCGGAGTCACCTAGTGCAG
Second: GGGAGGGGAGGGGAGGGATGGCTGGACTGGACCGAGTGAGCGGAGTCACCTAGTGCAG
The binding signal of the first is lower: 8540 fluorescence intensity (a.u.) for the first, 13800 fluorescence intensity (a.u.) for the second.

First: CATGTTCTTCGTCCCTCTGTCACAGCAGCTGCCTTTTACGCGGAGTCACCTAGTGCAG
Second: GTCCCCATTGTTGCTGGCTTGCTGCATGTTCATCTTGTTGCGGAGTCACCTAGTGCAG
The binding signal of the first is higher: 11100 fluorescence intensity (a.u.) for the first, 9520 fluorescence intensity (a.u.) for the second.

First: GTCACTCCTACTCCCGCCACCACCGGCCCAATGGCGCCCCCGGAGTCACCTAGTGCAG
Second: GCGCTCAACTTTAATCGTCCGTTTTATTTGAAATTTTTTTCGGAGTCACCTAGTGCAG
The binding signal of the first is higher: 9660 fluorescence intensity (a.u.) for the first, 8330 fluorescence intensity (a.u.) for the second.

Going from “AATTTTTTTTTCTGTACCTTTTCTTGTGATTCTGCGTCCACGGAGTCACCTAGTGCAG” to “TCCGCCACCGCCGCCTTCGCCGCTGCGGCGATCTCACTCGCGGAGTCACCTAGTGCAG”, the binding signal rises from 8760 fluorescence intensity (a.u.) to 9670 fluorescence intensity (a.u.).

First: ATCGGGGTGTGACATATTTAGATCGTCTGGTAAAATTTTACGGAGTCACCTAGTGCAG
Second: TAGTTTCCACTCCCTCTCCTCGGGGAGTCGTTGCTGTTCTCGGAGTCACCTAGTGCAG
The binding signal of the first is lower: 8280 fluorescence intensity (a.u.) for the first, 9380 fluorescence intensity (a.u.) for the second.

Compared with “AGCACAATCTATATTTAAACATTGACCATTCGTCTATTTTCGGAGTCACCTAGTGCAG”, “TCCTTAAAATATCTCGGGAGGTAGCATATTTTTTATTGTACGGAGTCACCTAGTGCAG” is higher in binding signal: 8260 fluorescence intensity (a.u.) for the first, 8670 fluorescence intensity (a.u.) for the second.

Going from “TCCCAACCCATCTCCCTCGTTTTCCGCGCGCACGCTTTTCCGGAGTCACCTAGTGCAG” to “AAATCGCTCTCATTACGTTTCTAGAATTTTTTTTTGTGTGCGGAGTCACCTAGTGCAG”, the binding signal falls from 14000 fluorescence intensity (a.u.) to 8030 fluorescence intensity (a.u.).

Going from “TGCATTCCTGTTACACGCTTTATTAATTATTATATAAAAACGGAGTCACCTAGTGCAG” to “TTGTAGTACTAGGTCGTATCTAATACTAGTTGATTTTTTACGGAGTCACCTAGTGCAG”, the binding signal falls from 9720 fluorescence intensity (a.u.) to 8190 fluorescence intensity (a.u.).

Going from “CTTCTTCATTTTCCACGCGCACAATTTTCAAACTGTTAAACGGAGTCACCTAGTGCAG” to “TCTGTTGATGGATGTGGATGTTGTGCAGGTGACGCTGCAGCGGAGTCACCTAGTGCAG”, the binding signal falls from 9790 fluorescence intensity (a.u.) to 9280 fluorescence intensity (a.u.).

Compared with “CTTTTTTTATCATTTTGTTTCACTTTGAACTATTTTATTTCGGAGTCACCTAGTGCAG”, “CATCTCGCCAATTCTACTGAACATATGCTAGCTAATCCAACGGAGTCACCTAGTGCAG” is lower in binding signal: 10600 fluorescence intensity (a.u.) for the first, 9490 fluorescence intensity (a.u.) for the second.

Compared with “TTCCACGTCCACCAACCGCCGCTTCGCCCTTCGCTGCTGCCGGAGTCACCTAGTGCAG”, “AAATGTGGTTTTGATGGTTTCCAACATATATTTATCGGTTCGGAGTCACCTAGTGCAG” is lower in binding signal: 9300 fluorescence intensity (a.u.) for the first, 8570 fluorescence intensity (a.u.) for the second.
